Taken from: PubChem BioAssay AID652243 (Drosophila RNAi Screening Center, 2013)

- Assay: 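Fly genes required for human androgen receptor driven transcription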 (primary screen)
- Cell system: Drosophila S2R+ cells
- Knock-down reagent: long dsRNA against Drosophila genes
- Time to read-out: 72 h (48 h, then 24 h hormone)
- Conditions: synthetic androgen R1881 at 10 nM for 24 h
- Read-out: 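Firefly light from an androgen-responsive reporter and Renilla control light per well, raw and unnormalised, for each of two replicates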
- Direction: firefly reporter light: higher = more light from androgen-responsive reporter; Renilla control light: higher = more constitutive control signal (cell number, transfection)
- Call rule: 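Across duplicate plates, a knock-down whose log firefly/Renilla ratio shifted a set fold down or up from the GFP/LacZ control mean was a hit; the downward cut appears as both 1.5 and 3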
- Meaning of the calls: active = hit: reporter lowered or raised; inactive = no hit
The deposit covers about 24,000 reagents; this is a random part of those that have a named target and a result. Over the whole deposit, 246 (1%) were called active. 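Plates not normalised; calls are printed but the firefly/Renilla ratio behind them is not deposited; fold cut for lowering reported inconsistently.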 The raw values are shown without normalisation. A plus sign joins genes that one reagent is predicted to hit. Reagent sequences are not shown. Not given: the amount of reagent.

| target | amplicon | firefly reporter light, replicate 1 | firefly reporter light, replicate 2 | Renilla control light, replicate 1 | Renilla control light, replicate 2 | outcome |
| --- | --- | --- | --- | --- | --- | --- |
| CG6136 (GeneID 41877) | DRSC15975 | 1.70e5 | 1.38e5 | 8.61e5 | 6.32e5 | inactive |
| CG32582 (retired record) (GeneID 318099) | DRSC19114 | 9.72e5 | 6.22e5 | 1.00e6 | 6.40e5 | inactive |
| CR15821 (GeneID 3771832) | DRSC08481 | 65750 | 1.20e5 | 9.09e5 | 9.48e5 | inactive |
| CR15821 (GeneID 3771832) | DRSC24584 | 7.54e5 | 4.13e5 | 4.50e5 | 4.61e5 | inactive |
| CG12507 (GeneID 32580) | DRSC19463 | 2.90e5 | 2.51e5 | 4.02e6 | 4.04e6 | inactive |
| Cyp308a1 (GeneID 32859) | DRSC20238 | 3.71e5 | 1.32e5 | 1.22e6 | 2.46e5 | inactive |
| Cyp308a1 (GeneID 32859) | DRSC26958 | 5.22e5 | 2.96e5 | 6.12e5 | 4.07e5 | inactive |
| CG7601 (GeneID 43502) | DRSC14131 | 1.13e5 | 99350 | 9.75e5 | 7.14e5 | inactive |
| CG5541 (GeneID 2768877) | DRSC19946 | 84008 | 1.44e5 | 8.99e5 | 1.11e6 | inactive |
| nerfin-2 (GeneID 41235) | DRSC14547 | 1.14e5 | 1.86e5 | 2.22e6 | 1.80e6 | inactive |
| nerfin-2 (GeneID 41235) | DRSC28542 | 5.20e5 | 6.41e5 | 5.24e5 | 9.80e5 | inactive |
| Agpat4 (GeneID 39819) | DRSC10446 | 1.45e5 | 1.16e5 | 1.60e6 | 1.36e6 | inactive |
| Agpat4 (GeneID 39819) | DRSC26102 | 5.15e5 | 3.50e5 | 7.75e5 | 6.56e5 | inactive |
| GstE3 (GeneID 37108) | DRSC06673 | 73358 | 90637 | 1.44e6 | 1.44e6 | inactive |

The list goes on; the last 2 above are carried over.
| target | amplicon | firefly reporter light, replicate 1 | firefly reporter light, replicate 2 | Renilla control light, replicate 1 | Renilla control light, replicate 2 | outcome |
| --- | --- | --- | --- | --- | --- | --- |
| Agpat4 (GeneID 39819) | DRSC26102 | 5.15e5 | 3.50e5 | 7.75e5 | 6.56e5 | inactive |
| GstE3 (GeneID 37108) | DRSC06673 | 73358 | 90637 | 1.44e6 | 1.44e6 | inactive |
| NFAT (GeneID 32321) | DRSC18991 | 1.23e6 | 1.00e6 | 6.78e5 | 5.64e5 | inactive |
| NFAT (GeneID 32321) | DRSC19393 | 8.57e5 | 1.11e6 | 5.42e6 | 5.78e6 | inactive |
| NFAT (GeneID 32321) | DRSC24828 | 4.35e5 | 3.84e5 | 4.03e5 | 4.30e5 | inactive |
| NFAT (GeneID 32321) | DRSC29663 | 3.35e5 | 5.96e5 | 1.16e6 | 1.16e6 | inactive |
| dUTPase (GeneID 34529) | DRSC01998 | 8.04e5 | 7.12e5 | 2.96e6 | 2.64e6 | inactive |
| dUTPase (GeneID 34529) | DRSC29469 | 4.82e5 | 6.15e5 | 8.60e5 | 8.60e5 | inactive |
| CG6800 + Polr1H | DRSC36946 | – | – | – | – | inactive |
| BomS5 (GeneID 50207) | DRSC22306 | 8.32e5 | 7.64e5 | 2.46e6 | 2.03e6 | inactive |
| CG17786 (GeneID 42879) | DRSC15270 | 2.20e5 | 1.67e5 | 2.16e6 | 1.78e6 | inactive |
| CG17786 (GeneID 42879) | DRSC25378 | 7.70e5 | 5.52e5 | 8.18e5 | 7.96e5 | inactive |
